Reference: patent publication US20240208984A1, “BIVALENT LIGANDS TO UNDERSTAND DIMERIZATION OF THE MU OPIOID RECEPTOR AND THE CHEMOKINE RECEPTOR CCR5 IN NEUROLOGICAL DISORDERS” (priority 2021, published 2024)

Test system: HIV-1BaL Env-pseudotyped Luc-expressing virus
Assay: HIV-1 infection assay in PHA-stimulated PBMC cells
Assay type: cell-based
Details: PHA-stimulated PBMCs; 10 nM
Description: Peripheral blood mononuclear cells (PBMCs) include large numbers of CCR5-expressing leukocytes and are susceptible to infection by R5-tropic HIV-1 strains.
In a 24-well plate, PHA-stimulated PBMC cells from healthy donors were infected by incubation with the HIV-1BaL.01 env-pseudotyped Luc virus. A concentration of HIV-1 p24 50 pg/106 cells was used, and uninfected cells served as a negative control. […] After approximately 18-20 h, the supernatant was removed and stored at −80° C., cells were rinsed twice with PBS and lysed. The lysate was subsequently tested for the relative Tat protein expression by using a luciferase assay system (Promega). Luciferase activity was measured using a PHERASTAR® FS plate reader (BMG Labtech).

CN1CC[C@]23c4c5ccc(O)c4O[C@H]2[C@@H](O)C=C[C@H]3[C@H]1C5 [morphine, reference compound] was tested, and the “effect of opioid exposure on HIV expression” value was “remarkable increases in HIV expression”.
